# Test: Endogenous SNO-Hb and Hb(FeII)NO in rat blood by photolysis-chemiluminescence
# Type: in vivo
# Settings: for SNO-Hb / Hb(FeII)NO (nm): endogenous level
# Description: A highly sensitive photolysis-chemiluminescence methodology was employed, which had been used for measuring RSNOs (S-nitrosothiols) in biological systems (Gaston, B., et al., Proc. Natl. Acad. Sci. USA 90:10957-10961 (1993); Stamler, J. S., et al., Proc. Natl. Acad. Sci USA 89:7674-7677 (1992)). The method involves photolytic liberation of NO from the thiol, which is then detected in a chemiluminesence spectrometer by reaction with ozone. The same principle of operation can be used to cleave (and measure) NO from nitrosyl-metal compounds (Antonini, E. and Brunori, M. In Hemoglobin and Myoglobin in Their Reactions with Ligands, American Elsevier Publishing Co., Inc., New York, pp. 29-31 (1971)). With adjustment of flow rates in the photolysis cell, complete photolysis of the NO ligand of Hb(FeII)NO is achieved. […] UV/VIS spectroscopy confirmed that NO remained attached to heme in the presence of excess HgCl^2.
# Blood was obtained from the left ventricle (arterial) and jugular vein (venous) of anesthetized Sprague-Dawley rats. […] Red blood cells were isolated by centrifugation at 800 g, washed three times in phosphate buffered saline at 4° C., lysed by the addition of 4-fold excess volume of deionized water containing 0.5 mM EDTA, and desalted rapidly across G-25 columns according to the method of Penefsky at 4° C. In 24 rats, Hb samples were divided in two aliquots which were then treated or not treated with 10-fold excess HgCl2 over protein concentration as measured by the method of Bradford. Determinations of SNO-Hb and Hb(FeII)NO were made by photolysis-chemiluminescence. In 12 additional rats, further verification of the presence of SNO-Hb was made by assaying for nitrite after HgCl2 treatment. Specifically, samples (with and without HgCl2) were separated across Amicon-3 (Centricon filters, m.w. cut off 3,000) at 4° C. for 1 h, and the low molecular weight fractions collected in airtight syringes containing 1 μM glutathione in 0.5 N HCl. Under these conditions, any nitrite present was converted to S-nitrosoglutathione, which was then measured by photolysis-chemiluminescence (detection limit ˜1 nM). SNO-Hb was present in all arterial samples, and levels determined by this method (286±33 nM) were virtually identical to and not statistically different from those shown in Table 2. In venous blood, SNO-Hb was undetectable (0.00±25 nM); levels were not statistically different from those given above.
# A highly sensitive photolysis-chemiluminescence methodology was employed. A somewhat similar assay has been used for measuring RSNOs (S-nitrosothiols) in biological systems (Gaston, B., et al., Proc. Natl. Acad. Sci. USA 90:10957-10961 (1993); Stamler, J. S., et al., Proc. Natl. Acad. Sci. USA 89:7675-7677 (1992)). The method involves photolytic liberation of NO from the thiol, which is then detected in a chemiluminesence spectrometer by reaction with ozone. The same principle of operation can be used to cleave (and measure) NO from nitrosyl-metal compounds (Antonini, E. and Brunori, M. In Hemoglobin and Myoglobin in Their Reactions with Ligands, American Elsevier Publishing Co., Inc., New York, pp. 29-31 (1971)). With adjustment of flow rates in the photolysis cell, complete photolysis of the NO ligand of Hb(FeII)NO could be achieved. […] UV/VIS spectroscopy confirmed that NO remained attached to heme in the presence of excess HgCl2.
Substance,"SNO-Hb level by nitrite assay after HgCl2 treatment (arterial samples, 12 additional rats)",SNO-Hb (arterial blood),SNO-Hb (venous blood),Hb(FeII)NO (nm) (arterial blood),Hb(FeII)NO (nm) (venous blood)
"SNO-Hb: S-nitrosohemoglobin, hemoglobin S-nitrosylated at thiol groups (cysβ93)",286 ± 33 nM,311 ± 55 nM,32 ± 14 nM,,
Hb(FeII)NO: hemoglobin with NO bound to the Fe of the heme,,,,536 ± 99 nm,894 ± 126 nm

# Source: patent publication US7538193B2, “NO-modified hemoglobins and uses therefor” (Duke University, priority 1995, dated 2009)
